Assay [1] deals with T1, FLAG-TRAF2, full length human Traf2 with N-terminal FLAG epitope tag (human) (UniProt Q12933).
T1 sequence: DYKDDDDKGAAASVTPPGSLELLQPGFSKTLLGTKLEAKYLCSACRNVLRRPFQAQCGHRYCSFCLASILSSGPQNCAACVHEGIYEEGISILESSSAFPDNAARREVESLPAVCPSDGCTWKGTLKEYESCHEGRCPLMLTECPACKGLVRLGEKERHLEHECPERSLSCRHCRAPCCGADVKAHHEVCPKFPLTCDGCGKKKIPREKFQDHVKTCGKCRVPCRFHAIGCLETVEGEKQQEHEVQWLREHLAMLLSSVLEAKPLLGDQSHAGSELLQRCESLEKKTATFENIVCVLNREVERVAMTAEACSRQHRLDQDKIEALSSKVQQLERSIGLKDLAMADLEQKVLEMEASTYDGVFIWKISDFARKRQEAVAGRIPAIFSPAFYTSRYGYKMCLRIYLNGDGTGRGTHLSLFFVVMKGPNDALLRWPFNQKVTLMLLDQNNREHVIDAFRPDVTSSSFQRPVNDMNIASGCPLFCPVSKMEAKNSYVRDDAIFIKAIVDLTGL
The assay is described as follows: co-immunoprecipitation: anti-HA IP, anti-FLAG blot, Phoenix-A cell lysates.

The chains behind the UniProt entries cited, without tags or fusion partners. Where a name states a change or a piece, a line headed by the entry shows the natural chain unless it says otherwise.
UniProt Q9UKE5: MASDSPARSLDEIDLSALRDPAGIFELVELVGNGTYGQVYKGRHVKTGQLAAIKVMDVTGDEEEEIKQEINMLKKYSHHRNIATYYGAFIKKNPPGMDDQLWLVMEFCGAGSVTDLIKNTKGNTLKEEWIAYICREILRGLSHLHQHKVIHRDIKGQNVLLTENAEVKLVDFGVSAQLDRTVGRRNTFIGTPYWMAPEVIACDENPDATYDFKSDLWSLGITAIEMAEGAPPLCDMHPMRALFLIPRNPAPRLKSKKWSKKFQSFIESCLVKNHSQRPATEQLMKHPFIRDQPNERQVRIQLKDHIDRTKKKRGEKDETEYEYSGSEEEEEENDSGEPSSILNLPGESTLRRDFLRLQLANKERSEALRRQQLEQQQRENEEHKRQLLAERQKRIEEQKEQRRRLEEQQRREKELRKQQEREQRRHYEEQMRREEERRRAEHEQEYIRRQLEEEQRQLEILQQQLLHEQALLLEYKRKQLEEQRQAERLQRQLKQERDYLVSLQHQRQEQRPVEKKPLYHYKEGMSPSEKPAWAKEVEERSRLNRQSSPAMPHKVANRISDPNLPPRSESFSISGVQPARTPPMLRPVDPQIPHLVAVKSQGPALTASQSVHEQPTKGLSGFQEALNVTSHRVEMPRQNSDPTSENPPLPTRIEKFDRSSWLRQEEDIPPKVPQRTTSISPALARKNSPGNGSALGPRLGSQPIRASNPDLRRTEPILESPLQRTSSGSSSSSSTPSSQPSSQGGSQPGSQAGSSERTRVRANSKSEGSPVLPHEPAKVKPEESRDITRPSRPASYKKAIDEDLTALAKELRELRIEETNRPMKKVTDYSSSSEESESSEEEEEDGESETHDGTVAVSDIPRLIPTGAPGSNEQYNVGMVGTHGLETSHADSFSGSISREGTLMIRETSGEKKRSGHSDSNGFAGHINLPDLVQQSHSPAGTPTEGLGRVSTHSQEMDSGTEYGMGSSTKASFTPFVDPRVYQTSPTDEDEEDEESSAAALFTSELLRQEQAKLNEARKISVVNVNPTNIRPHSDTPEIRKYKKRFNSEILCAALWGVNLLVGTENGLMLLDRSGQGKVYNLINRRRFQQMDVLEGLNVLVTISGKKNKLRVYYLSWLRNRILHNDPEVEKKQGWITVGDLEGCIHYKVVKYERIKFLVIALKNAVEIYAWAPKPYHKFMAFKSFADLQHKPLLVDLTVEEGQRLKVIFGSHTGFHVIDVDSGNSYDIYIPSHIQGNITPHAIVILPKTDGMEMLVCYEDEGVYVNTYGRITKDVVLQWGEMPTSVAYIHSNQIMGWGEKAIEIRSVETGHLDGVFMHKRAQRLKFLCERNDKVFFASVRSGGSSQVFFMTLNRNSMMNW

The target in assay [2] is HA-Tnik(WT), full length human Tnik isoform 1 with N-terminal HA epitope tag (human) (UniProt Q9UKE5). The assay is described as above.

This passage reports binding results from patent US6562591.

No constants are given. Whether binding was seen depends on the method and setting. In cells and extracts the contact can be indirect. Some entries that bind do so weakly or less than the wild type. Where a sequence is shown, tags or fusion partners need not be part of it.

B1: HA-Tnik(N2), truncated form of Tnik (enzyme)
chain: AYPYDVPDYAMASDSPARSLDEIDLSALRDPAGIFELVELVGNGTYGQVYKGRHVKTGQLAAIKVMDVTGDEEEEIKQEINMLKKYSHHRNIATYYGAFIKKNPPGMDDQLWLVMEFCGAGSVTDLIKNTKGNTLKEEWIAYICREILRGLSHLHQHKVIHRDIKGQNVLLTENAEVKLVDFGVSAQLDRTVGRRNTFIGTPYWMAPEVIACDENPDATYDFKSDLWSLGITAIEMAEGAPPLCDMHPMRALFLIPRNPAPRLKSKKWSKKFQSFIESCLVKNHSQRPATEQLMKHPFIRDQPNERQVRIQLKDHIDRTKKKRGEKDETEYEYSGSEEEEEENDSGEPSSILNLPGESTLRRDFLRLQLANKERSEALRRQQLEQQQRENEEHKRQLLAERQKRIEEQKEQRRRLEEQQRREKELRKQQEREQRRHYEEQMRREEERRRAEHEQEYIRRQLEEEQRQLEILQQQLLHEQALLLEYKRKQLEEQRQAERLQRQLKQERDYLVSLQHQRQEQRPVEKKPLYHYKEGMSPSEKPAWAKEVEERSRLNRQSSPAMPHKVANRISDPNLPPRSESFSISGVQPARTPPMLRPVDPQIPHLVAVKSQGPALTASQSVHEQPTKGLSGFQEALNVTSHRVEMPRQNSDPTSENPPLPTRIEKFDRSSWLRQEEDIPPKVPQRTTSISPALARKNSPGNGSALGPRLGSQPIRASNPDLRRTEPILESPLQRTSSGSSSSSSTPSSQPSSQGGSQPGSQAGSSERTRVRANSKSEGSPVLPHEPAKVKPEESRDITRPSRPASYKKAIDEDLTALAKELRELRIEETNRPMKKVTDYSSSSEESESSEEEEEDGESETHDGTVAVSDIPRLIPTGAPGSNEQYNVGMVGTHGLETSHADSFSGSISREGTLMIRETSGEKKRSGHSDSNGFAGHINLPDLVQQSHSPAGTPTEGLGRVSTHSQEMDSGTEYGMGSSTKASFTPFVDPRVYQTSPTDEDEEDEESSAAALFTSELLRQEQAKLNEA
For the molecule B1, the binding result in assay [1] was “binds”.

B2: FLAG-TRAF2, full length human Traf2 with N-terminal FLAG epitope tag (protein)
chain: T1 sequence
As to B2, the binding entry in assay [2] is “binds”.

B3: FLAG-TRAF2(272-501) (protein, human)
chain: DYKDDDDKGCESLEKKTATFENIVCVLNREVERVAMTAEACSRQHRLDQDKIEALSSKVQQLERSIGLKDLAMADLEQKVLEMEASTYDGVFIWKISDFARKRQEAVAGRIPAIFSPAFYTSRYGYKMCLRIYLNGDGTGRGTHLSLFFVVMKGPNDALLRWPFNQKVTLMLLDQNNREHVIDAFRPDVTSSSFQRPVNDMNIASGCPLFCPVSKMEAKNSYVRDDAIFIKAIVDLTGL
Take B3: the binding result in assay [2] is “binds”.

B4: HA-Tnik(M), intermediate domain of Tnik (protein)
chain: AYPYDVPDYAIDRTKKKRGEKDETEYEYSGSEEEEEENDSGEPSSILNLPGESTLRRDFLRLQLANKERSEALRRQQLEQQQRENEEHKRQLLAERQKRIEEQKEQRRRLEEQQRREKELRKQQEREQRRHYEEQMRREEERRRAEHEQEYIRRQLEEEQRQLEILQQQLLHEQALLLEYKRKQLEEQRQAERLQRQLKQERDYLVSLQHQRQEQRPVEKKPLYHYKEGMSPSEKPAWAKEVEERSRLNRQSSPAMPHKVANRISDPNLPPRSESFSISGVQPARTPPMLRPVDPQIPHLVAVKSQGPALTASQSVHEQPTKGLSGFQEALNVTSHRVEMPRQNSDPTSENPPLPTRIEKFDRSSWLRQEEDIPPKVPQRTTSISPALARKNSPGNGSALGPRLGSQPIRASNPDLRRTEPILESPLQRTSSGSSSSSSTPSSQPSSQGGSQPGSQAGSSERTRVRANSKSEGSPVLPHEPAKVKPEESRDITRPSRPASYKKAIDEDLTALAKELRELRIEETNRPMKKVTDYSSSSEESESSEEEEEDGESETHDGTVAVSDIPRLIPTGAPGSNEQYNVGMVGTHGLETSHADSFSGSISREGTLMIRETSGEKKRSGHSDSNGFAGHINLPDLVQQSHSPAGTPTEGLGRVSTHSQEMDSGTEYGMGSSTKASFTPFVDPRVYQTSPTDEDEEDEESSAAALFTSELLRQEQAKLNEA
As to B4, the binding entry in assay [1] is listed as “binds”.

B5: FLAG-TRAF2(87-501) (protein, human)
chain: DYKDDDDKGSSSAFPDNAARREVESLPAVCPSDGCTWKGTLKEYESCHEGRCPLMLTECPACKGLVRLGEKERHLEHECPERSLSCRHCRAPCCGADVKAHHEVCPKFPLTCDGCGKKKIPREKFQDHVKTCGKCRVPCRFHAIGCLETVEGEKQQEHEVQWLREHLAMLLSSVLEAKPLLGDQSHAGSELLQRCESLEKKTATFENIVCVLNREVERVAMTAEACSRQHRLDQDKIEALSSKVQQLERSIGLKDLAMADLEQKVLEMEASTYDGVFIWKISDFARKRQEAVAGRIPAIFSPAFYTSRYGYKMCLRIYLNGDGTGRGTHLSLFFVVMKGPNDALLRWPFNQKVTLMLLDQNNREHVIDAFRPDVTSSSFQRPVNDMNIASGCPLFCPVSKMEAKNSYVRDDAIFIKAIVDLTGL
Regarding B5, in assay [2], the binding entry was “binds”.
